# Data published in the supplement of paper PMC8728848.
# The list shows a part of the results.
# B1: SrpA (Streptococcus sanguis) (protein)
# chain: SSKSESTVNSQSASSETNRSSTNNGSTSSSSETARVRKRRATDTTPPTITVPSDIIAYRGEEFEFYFEITDDSGQVKNIELSTFGKPLGLNWLEYSEDNFNVPGNATSDNPLRVRVHGTVPLNEPIPADKNRAQFTRTIRAWDAAGNVSSNITFVIKYRAQTDKYNPADPTITYVDRLSSLSPSEKNAVEAAVRAANPQIPAAARITVSANGTVTITYPDSSTDTITANRVVKDLASSRSALT
# Experiments:
# Assay in all cases: glycan array binding signal (z-score within array); higher = stronger binding
# Settings in all cases: glycan notation: IUPAC condensed, linker removed
# Fuc(b1-3)GlcNAc = biological target: Fuc(b1-3)GlcNAc
# Summary of the method: (§1)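 Glycan array data were curated from 3228 arrays in the Consortium for Functional Glycomics database and kept only where the protein sequence was available. Glycan names were converted to IUPAC-condensed notation, and columns mapping to the same glycan were averaged. The binding signal is a within-array Z-score, averaged across arrays of the same protein sequence at different concentrations or buffers and across linkers. Negative Z-scores can be read as non-binding.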
# Gal(a1-2)Gal = biological target: Gal(a1-2)Gal
# Summary of the method: as §1
# Gal(a1-3)Gal = biological target: Gal(a1-3)Gal
# Summary of the method: as §1
# Gal(a1-3)Gal(b1-3)GlcNAc = biological target: Gal(a1-3)Gal(b1-3)GlcNAc
# Summary of the method: as §1
# Gal(a1-3)Gal(b1-4)Glc = biological target: Gal(a1-3)Gal(b1-4)Glc
# Summary of the method: as §1
# Gal(a1-3)Gal(b1-4)GlcNAc = biological target: Gal(a1-3)Gal(b1-4)GlcNAc
# Summary of the method: as §1
# [1] = biological target: Gal(a1-3)Gal(b1-4)[Fuc(a1-3)]GlcNAc
# Summary of the method: as §1
# Gal(a1-3)GalNAc = biological target: Gal(a1-3)GalNAc
# Summary of the method: as §1
# [2] = biological target: Gal(a1-3)[Gal(a1-4)]Gal(b1-4)GlcNAc
# Summary of the method: as §1
# Gal(a1-4)Gal(b1-4)Glc = biological target: Gal(a1-4)Gal(b1-4)Glc
# Summary of the method: as §1
# Gal(a1-4)Gal(b1-4)GlcNAc = biological target: Gal(a1-4)Gal(b1-4)GlcNAc
# Summary of the method: as §1
# Gal(a1-4)GlcNAc = biological target: Gal(a1-4)GlcNAc
# Summary of the method: as §1
# Gal(a1-6)Glc = biological target: Gal(a1-6)Glc
# Summary of the method: as §1
# Gal(b1-2)Gal = biological target: Gal(b1-2)Gal
# Summary of the method: as §1
# Gal(b1-3)Gal = biological target: Gal(b1-3)Gal
# Summary of the method: as §1
# Gal(b1-3)GalNAc = biological target: Gal(b1-3)GalNAc
# Summary of the method: as §1
# [3] = biological target: Gal(b1-3)GalNAc(b1-3)Gal(a1-4)Gal(b1-4)Glc
# Summary of the method: as §1
# [4] = biological target: Gal(b1-3)GalNAc(b1-4)Gal(b1-4)Glc
# Summary of the method: as §1
# [5] = biological target: Gal(b1-3)GalNAc(b1-4)[Neu5Ac(a2-3)]Gal(b1-4)Glc
# Summary of the method: as §1
# Gal(b1-3)GlcNAc = biological target: Gal(b1-3)GlcNAc
# Summary of the method: as §1
# [6] = biological target: Gal(b1-3)GlcNAc(b1-3)Gal(b1-3)GlcNAc
# Summary of the method: as §1
# [7] = biological target: Gal(b1-3)GlcNAc(b1-3)Gal(b1-4)Glc
# Summary of the method: as §1
# [8] = biological target: Gal(b1-3)GlcNAc(b1-3)Gal(b1-4)GlcNAc
# Summary of the method: as §1
# [9] = biological target: Gal(b1-3)[Fuc(a1-4)]GlcNAc
# Summary of the method: as §1
# [10] = biological target: Gal(b1-3)[Fuc(a1-4)]GlcNAc(b1-3)Gal(b1-3)[Fuc(a1-4)]GlcNAc
# Summary of the method: as §1
# [11] = biological target: Gal(b1-3)[Fuc(a1-4)]GlcNAc(b1-3)Gal(b1-4)GlcNAc
# Summary of the method: as §1
# [12] = biological target: Gal(b1-3)[Fuc(a1-4)]GlcNAc(b1-3)Gal(b1-4)[Fuc(a1-3)]GlcNAc
# Summary of the method: as §1
# [13] = biological target: Gal(b1-3)[GlcNAc(b1-6)]GalNAc
# Summary of the method: as §1
# [14] = biological target: Gal(b1-3)[Neu5Ac(a2-6)]GalNAc
# Summary of the method: as §1
# [15] = biological target: Gal(b1-3)[Neu5Ac(a2-6)]GlcNAc(b1-6)Gal(b1-4)Glc
# Summary of the method: as §1
# [16] = biological target: Gal(b1-3)[Neu5Ac(b2-6)]GalNAc
# Summary of the method: as §1
# [17] = biological target: Gal(b1-4)GalNAc(a1-3)[Fuc(a1-2)]Gal(b1-4)GlcNAc
# Summary of the method: as §1
# [18] = biological target: Gal(b1-4)GalNAc(b1-3)[Fuc(a1-2)]Gal(b1-4)GlcNAc
# Summary of the method: as §1
# Gal(b1-4)Glc = biological target: Gal(b1-4)Glc
# Summary of the method: as §1
# Gal(b1-4)Glc6S = biological target: Gal(b1-4)Glc6S
# Summary of the method: as §1
# Gal(b1-4)GlcNAc = biological target: Gal(b1-4)GlcNAc
# Summary of the method: as §1
# [19] = biological target: Gal(b1-4)GlcNAc(b1-2)Man(a1-3)[Gal(b1-4)GlcNAc(b1-2)Man(a1-6)]Man(b1-4)GlcNAc(b1-4)GlcNAc
# Summary of the method: as §1
# [20] = biological target: Gal(b1-4)GlcNAc(b1-3)Gal(b1-3)GlcNAc
# Summary of the method: as §1
# [21] = biological target: Gal(b1-4)GlcNAc(b1-3)Gal(b1-4)Glc
# Summary of the method: as §1
# [22] = biological target: Gal(b1-4)GlcNAc(b1-3)Gal(b1-4)GlcNAc
# Summary of the method: as §1
# [23] = biological target: Gal(b1-4)GlcNAc(b1-3)Gal(b1-4)GlcNAc(b1-3)Gal(b1-4)GlcNAc
# Summary of the method: as §1
# [24] = biological target: Gal(b1-4)GlcNAc(b1-3)Gal(b1-4)[Fuc(a1-3)]GlcNAc(b1-3)Gal(b1-4)[Fuc(a1-3)]GlcNAc
# Summary of the method: as §1
# [25] = biological target: Gal(b1-4)GlcNAc(b1-3)GalNAc
# Summary of the method: as §1
# [26] = biological target: Gal(b1-4)GlcNAc(b1-3)[Gal(b1-4)GlcNAc(b1-6)]GalNAc
# Summary of the method: as §1
# [27] = biological target: Gal(b1-4)GlcNAc(b1-6)Gal(b1-4)GlcNAc(b1-6)GalNAc
# Summary of the method: as §1
binder,measurement,setting,value
B1,glycan array binding signal (z-score),Fuc(b1-3)GlcNAc,-0.308
same,glycan array binding signal (z-score),Gal(a1-2)Gal,-0.053
same,glycan array binding signal (z-score),Gal(a1-3)Gal,1.1
same,glycan array binding signal (z-score),Gal(a1-3)Gal(b1-3)GlcNAc,-0.516
same,glycan array binding signal (z-score),Gal(a1-3)Gal(b1-4)Glc,0.291
same,glycan array binding signal (z-score),Gal(a1-3)Gal(b1-4)GlcNAc,0.339
same,glycan array binding signal (z-score),[1],-0.1
same,glycan array binding signal (z-score),Gal(a1-3)GalNAc,-0.317
same,glycan array binding signal (z-score),[2],-0.031
same,glycan array binding signal (z-score),Gal(a1-4)Gal(b1-4)Glc,0.244
same,glycan array binding signal (z-score),Gal(a1-4)Gal(b1-4)GlcNAc,-0.222
same,glycan array binding signal (z-score),Gal(a1-4)GlcNAc,0.588
same,glycan array binding signal (z-score),Gal(a1-6)Glc,0.965
same,glycan array binding signal (z-score),Gal(b1-2)Gal,-0.396
same,glycan array binding signal (z-score),Gal(b1-3)Gal,-0.023
same,glycan array binding signal (z-score),Gal(b1-3)GalNAc,-0.369
same,glycan array binding signal (z-score),[3],0.388
same,glycan array binding signal (z-score),[4],-0.136
same,glycan array binding signal (z-score),[5],-0.532
same,glycan array binding signal (z-score),Gal(b1-3)GlcNAc,0.089
same,glycan array binding signal (z-score),[6],-0.335
same,glycan array binding signal (z-score),[7],-0.479
same,glycan array binding signal (z-score),[8],-0.482
same,glycan array binding signal (z-score),[9],-0.359
same,glycan array binding signal (z-score),[10],-0.44
same,glycan array binding signal (z-score),[11],-0.372
same,glycan array binding signal (z-score),[12],-0.343
same,glycan array binding signal (z-score),[13],-0.663
same,glycan array binding signal (z-score),[14],-0.333
same,glycan array binding signal (z-score),[15],-0.475
same,glycan array binding signal (z-score),[16],-0.742
same,glycan array binding signal (z-score),[17],-0.52
same,glycan array binding signal (z-score),[18],-0.16
same,glycan array binding signal (z-score),Gal(b1-4)Glc,-0.187
same,glycan array binding signal (z-score),Gal(b1-4)Glc6S,0.135
same,glycan array binding signal (z-score),Gal(b1-4)GlcNAc,0.182
same,glycan array binding signal (z-score),[19],-0.189
same,glycan array binding signal (z-score),[20],-0.381
same,glycan array binding signal (z-score),[21],-0.471
same,glycan array binding signal (z-score),[22],-0.43
same,glycan array binding signal (z-score),[23],0.016
same,glycan array binding signal (z-score),[24],0.199
same,glycan array binding signal (z-score),[25],-0.071
same,glycan array binding signal (z-score),[26],-0.645
same,glycan array binding signal (z-score),[27],-0.076

# Reformatted tab-delimited: part of the list above
binder	measurement	setting	value
B1	glycan array binding signal (z-score)	[16]	-0.742
same	glycan array binding signal (z-score)	[17]	-0.52
